Reference: patent US9781933B2, “Tetrazolinone compound and use thereof” (Sumitomo Chemical Company, Limited, priority 2013, dated 2017)
Some results were stated once for a whole list of compounds, not compound by compound. For some assays here: At least one compound was matched to its structure with a doubt left.

What was measured:
[1] = tested on: anthracnose fungus (Colletotrichum lagenarium); test: Test Example 10: cucumber anthracnose control, foliar spray; type: in vivo; conditions: 200 ppm foliar spray; cucumber (SAGAMI HANJIRO); inoculated one day after spraying
[2] = tested on: target spot fungus (Corynespora cassiicola); test: Test Example 9: cucumber target spot control, foliar spray; type: in vivo; conditions: 200 ppm foliar spray; cucumber (SAGAMI HANJIRO); inoculated one day after spraying
[3] = tested on: barley scald fungus (Rhynchosporium secaljs); test: Test Example 8: barley scald control, foliar spray; type: in vivo; conditions: 200 ppm foliar spray; barley (NISHINOHOSHI); inoculated 2 days after spraying
[4] = tested on: barley net blotch fungus (Pyrenophora teres); test: Test Example 3: barley net blotch control, foliar spray; type: in vivo; conditions: 500 ppm foliar spray; barley (NISHTNOHOSHI); inoculated 2 days after spraying
[5] = tested on: soybean rust fungus (Phakopsora pachyrhizi); test: Test Example 7: soybean rust control, foliar spray; type: in vivo; conditions: 200 ppm foliar spray; soybean (KUROSENGOKU); inoculated 2 days after spraying
[6] = tested on: wheat leaf blotch fungus (Septoria tritici); test: Test Example 5: wheat leaf blotch control, foliar spray; type: in vivo; conditions: 500 ppm foliar spray; wheat (APOGEE); inoculated 4 days after spraying
[7] = tested on: kidney bean stem rot fungus (Sclerotinia sclerotiorum); test: Test Example 4: kidney bean stem rot control, foliar spray; conditions: 500 ppm foliar spray, four days after inoculation

| Compound | area of lesion relative to that on an untreated plant [1] | area of lesion relative to that on an untreated plant [2] | area of lesion relative to that on an untreated plant [6] | also measured |
| --- | --- | --- | --- | --- |
| Cc1cccc(-n2nnn(C)c2=O)c1COc1ccn(-c2ccc(Cl)cn2)n1 [compound 28] | ≤ 30% | ≤ 30% |  |  |
| Cc1cccc(-n2nnn(C)c2=O)c1COc1ccn(-c2cnc(C(F)(F)F)cn2)n1 [compound 51] | ≤ 30% | ≤ 30% |  | area of lesion relative to that on an untreated plant [3]: ≤ 30%; area of lesion relative to that on an untreated plant [4]: ≤ 30% |
| COc1ccc(-n2ccc(OCc3c(C)cccc3-n3nnn(C)c3=O)n2)c(OC)n1 [compound 2] |  |  |  | area of lesion relative to that on an untreated plant [5]: ≤ 30% |
| Cc1cccc(-n2nnn(C)c2=O)c1COc1ccn(-c2ccc(Cl)nc2)n1 [compound 13] |  |  |  | area of lesion relative to that on an untreated plant [3]: ≤ 30% |
| COc1ccnc(-n2ccc(OCc3c(C)cccc3-n3nnn(C)c3=O)n2)n1 [compound 36] |  |  |  | area of lesion relative to that on an untreated plant [4]: ≤ 30% |
| Cc1cccc(-n2nnn(C)c2=O)c1COc1ccn(-c2ncc(Br)cn2)n1 [compound 32] |  |  | ≤ 30% | area of lesion relative to that on an untreated plant [4]: ≤ 30% |
| COc1nc2ccccc2cc1-n1ccc(OCc2c(C)cccc2-n2nnn(C)c2=O)n1 [compound 4] |  |  |  | area of lesion relative to that on an untreated plant [5]: ≤ 30% |
| Cc1cccc(-n2nnn(C)c2=O)c1COc1ccn(-c2cnc(Br)cn2)n1 [compound 52] |  |  |  | area of lesion relative to that on an untreated plant [4]: ≤ 30% |
| Cc1cccc(-n2nnn(C)c2=O)c1COc1ccn(-c2ccc(Cl)nn2)n1 [compound 53] | ≤ 30% |  |  |  |
| Cc1cccc(-n2nnn(C)c2=O)c1COc1ccn(-c2ccsc2)n1 [compound 25] |  |  |  | area of lesion relative to that on an untreated plant [3]: ≤ 30% |
| COc1ncccc1-n1ccc(OCc2c(C)cccc2-n2nnn(C)c2=O)n1 [compound 12] |  | ≤ 30% |  | area of lesion relative to that on an untreated plant [5]: ≤ 30%; area of lesion relative to that on an untreated plant [3]: ≤ 30% |
| Cc1cccc(-n2nnn(C)c2=O)c1COc1ccn(-c2ccc(C#N)cn2)n1 [compound 47] |  | ≤ 30% | ≤ 30% |  |
| Cc1cccc(-n2nnn(C)c2=O)c1COc1ccn(-c2cnccn2)n1 [compound 39] |  |  | ≤ 30% |  |
| Cc1cccc(-n2nnn(C)c2=O)c1COc1ccn(-c2cc3ccccc3n2C)n1 [compound 23] |  |  | ≤ 30% |  |
| COc1nc(Br)ccc1-n1ccc(OCc2c(C)cccc2-n2nnn(C)c2=O)n1 [compound 14] | ≤ 30% |  |  |  |
| Cc1cccc(-n2nnn(C)c2=O)c1COc1ccn(-c2ccc(Br)cn2)n1 [compound 42] | ≤ 30% | ≤ 30% | ≤ 30% |  |
| COc1nc(Cl)ccc1-n1ccc(OCc2c(C)cccc2-n2nnn(C)c2=O)n1 [compound 1] |  |  |  | area of lesion relative to that on an untreated plant [5]: ≤ 30% |
| COc1ccc(-n2ccc(OCc3c(C)cccc3-n3nnn(C)c3=O)n2)nn1 [compound 44] |  | ≤ 30% | ≤ 30% | area of lesion relative to that on an untreated plant [7]: ≤ 30% |
| Cc1cccc(-n2nnn(C)c2=O)c1COc1ccn(-c2nc3ccccc3s2)n1 [compound 48] | ≤ 30% | ≤ 30% |  | area of lesion relative to that on an untreated plant [3]: ≤ 30% |
| COc1nc(C)ccc1-n1ccc(OCc2c(C)cccc2-n2nnn(C)c2=O)n1 [compound 5] |  |  |  | area of lesion relative to that on an untreated plant [7]: ≤ 30%; area of lesion relative to that on an untreated plant [5]: ≤ 30% |
| Cc1cccc(-n2nnn(C)c2=O)c1COc1ccn(-c2ccc(C(F)(F)F)cn2)n1 [compound 16] |  |  |  | area of lesion relative to that on an untreated plant [7]: ≤ 30% |
| Cc1cccc(-n2nnn(C)c2=O)c1COc1ccn(-c2ncc(Cl)s2)n1 [compound 54] |  |  |  | area of lesion relative to that on an untreated plant [4]: ≤ 30% |
| Cc1cccc(-n2nnn(C)c2=O)c1COc1ccn(-c2ncc3ccccc3n2)n1 [compound 61] |  |  | ≤ 30% |  |
| Cc1cccc(-n2nnn(C)c2=O)c1COc1ccn(-c2ncccn2)n1 [compound 30] | ≤ 30% | ≤ 30% | ≤ 30% | area of lesion relative to that on an untreated plant [7]: ≤ 30% |
| Cc1cccc(-n2nnn(C)c2=O)c1COc1ccn(-c2ccc3ccccc3n2)n1 [compound 58] | ≤ 30% | ≤ 30% | ≤ 30% | area of lesion relative to that on an untreated plant [7]: ≤ 30%; area of lesion relative to that on an untreated plant [3]: ≤ 30%; area of lesion relative to that on an untreated plant [4]: ≤ 30% |
| Cc1cccc(-n2nnn(C)c2=O)c1COc1ccn(-c2cccc3c2OCC3)n1 [compound 26] | ≤ 30% |  |  | area of lesion relative to that on an untreated plant [5]: ≤ 30%; area of lesion relative to that on an untreated plant [3]: ≤ 30% |
| Cc1cccc(-n2nnn(C)c2=O)c1COc1ccn(-c2ccc(F)cn2)n1 [compound 40] |  | ≤ 30% | ≤ 30% |  |
| COc1ccc2nc(-n3ccc(OCc4c(C)cccc4-n4nnn(C)c4=O)n3)sc2c1 [compound 60] |  |  | ≤ 30% |  |
| Cc1cccc(-n2nnn(C)c2=O)c1COc1ccn(-c2nccs2)n1 [compound 38] |  | ≤ 30% |  |  |
| Cc1cccc(-n2nnn(C)c2=O)c1COc1ccn(-c2ccc3c(c2)OCO3)n1 [compound 6] |  |  |  | area of lesion relative to that on an untreated plant [7]: ≤ 30% |
